“And” between values parts separate entries of the source, which are not always exact repeats. Identical values can stand only once. This is one part of the list. Shown are side measurements of this screen, not its main read-out; they come without a call. Compounds called inactive in the main read-out are mostly missing here. Potencies come from curve fits of mixed quality, noted in brackets.

The AC50 is the midpoint of the concentration-response curve, whichever way the signal moves.

A short description of this test: qHTS Assay for Modulators of Lamin A Splicing. The following applies: HeLa LMNA splicing GFP/RFP minigene ratio, 48 h. In short, it runs like this: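 Read-out is the ratio of GFP to DsRed2 object intensity, acquired by 488 nm laser-scanning cytometry on HeLa lamin A-EGFP minigene reporter cells. Compound incubation 48 hrs at 37 °C in Opti-MEM with 2% FBS; DMSO 0.5% final.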
(In general: qHTS replaces the single test concentration by a dilution series.)

[1] abbreviates: measured here: RFP viability control channel.
[2] abbreviates: measured here: GFP splicing reporter channel.

For the compound `COC(=O)CNC(c1ccccc1)c1cc(Br)ccc1NS(=O)(=O)c1ccc(C)cc1` (configuration not stated), the AC50 under setting [1] was 35.5 µM [rising, single point].

As to `COC(=O)CCC(=O)OC1(C)C(=O)C=C2C=C(C3CC3)N(Cc3ccccc3)C=C2C1=O` (configuration not stated), the AC50 under setting [2] is 0.0316 µM [rising, partial curve].

Consider `COc1ccc(-c2nc(SCC(=O)NCCc3ccccc3)n[nH]2)cc1`, for which the AC50 under setting [1] was 0.0224 µM [falling, full curve, poor fit].

Consider `CCOC(=O)CN(Cc1sccc1C)C(=O)Nc1ccc(OC)cc1OC`, for which the AC50 under setting [2] is 25.1 µM [rising, single point] and the AC50 under setting [1] was 20 µM [rising, single point].

As to `CC(C)(C)c1ccc([C@@H](O)CCCN2CCC(C(O)(c3ccccc3)c3ccccc3)CC2)cc1`, the AC50 runs as follows: under setting [2], 11.2 µM [falling, partial curve]; under setting [1], 8.91 µM [falling, single point].

As to `CN(C)S(=O)(=O)c1cccc(NC(=O)Cc2ccc(Cl)cc2)c1`, the half-maximal activity concentration (AC50) was 8.91 µM [rising, partial curve] under setting [2] and 15.8 µM [rising, partial curve] under setting [1].

For `Cc1ccc2onc(CC(=O)N3CCN(c4ccccc4)CC3)c2c1`, the AC50 under setting [2] was 35.5 µM [falling, single point] and the half-maximal activity concentration (AC50) under setting [1] is 0.0316 µM [falling, full curve, poor fit].

Turning to `COc1ccc(NS(=O)(=O)c2ccc(S(=O)(=O)N3CCCC3)cc2)cc1Cl`, the AC50 under setting [1] was 15.8 µM [rising, single point].

For `Cc1cc(-c2ccccc2)nc(N(C)NC(=O)C2CC2)c1S(C)(=O)=O`, the AC50 is, setting by setting: under setting [2], 6.31 µM [rising, partial curve]; under setting [1], 3.55 µM [rising, full curve, poor fit].

As to `C=CCNc1ncnc2c1[nH]c1ccc(C)cc12`, the AC50 was 12.6 µM [rising, partial curve] under setting [2] and 15.8 µM [rising, partial curve] under setting [1].

For the compound `CCCC(=O)Nc1ccc2nc(SCC(=O)Nc3ccc(N4CCOCC4)c(Cl)c3)sc2c1`, the AC50 under setting [2] was 0.00501 µM [falling, full curve, poor fit] and the AC50 under setting [1] is 0.00447 µM [falling, full curve, poor fit].

For the compound `O=C(CSc1cn(CCNC(=O)c2cccs2)c2ccccc12)NC1CCCCC1`, under setting [1], the concentration at half-maximal activity (AC50) was 7.94 µM [rising, partial curve, poor fit].

Regarding `O=C(NCCc1ccccc1)c1ccc(CS(=O)(=O)c2ccc(Cl)cc2)o1`, the AC50 was 0.794 µM [falling, full curve] under setting [2]; 6.31 µM [rising, single point] and 20 nM [falling, full curve] under setting [1].

Take `CCn1c(=S)sc2c(=O)n(-c3ccccc3)c(SC)nc21`: the AC50 under setting [1] was 14.1 µM [rising, partial curve].

With `N#Cc1c(NC(=S)NC(=O)Cc2cccs2)sc2c1CCCCC2`, the AC50 was 17.8 µM [rising, single point] under setting [2] and 31.6 µM [rising, single point] under setting [1].

With `CCOCCCNC(=O)c1cc2c(=O)n3cccc(C)c3nc2n1C`, the AC50 under setting [1] is 0.0447 µM [rising, full curve, poor fit].

As for `O=C(CSc1nc(-c2ccco2)cc(C(F)(F)F)n1)N1CCN(c2ccc(Cl)cc2)CC1`, the AC50 under setting [1] is 22.4 µM [rising, partial curve].

On to `COc1ccc(-c2nc3cnc(N(C)C)nc3n(Cc3cccs3)c2=O)cc1`, for which, under setting [1], the half-maximal activity concentration (AC50) was 35.5 µM [falling, single point].

As for `CN(C)c1cccc2c(C=C(C#N)C#N)ccc(N(C)C)c12`, the AC50 under setting [2] is 2.51 µM [rising, full curve, poor fit] and the AC50 under setting [1] is 2.51 µM [rising, full curve].

Regarding `CCOC(=O)C1=C[C@]2(CC)CCCN3CCc4c(n1c1ccccc41)[C@@H]32`, under setting [1], the concentration at half-maximal activity (AC50) was 11.2 µM [rising, single point].

Regarding `CC(=O)N1CCN(Cc2nc3cc(NC(=O)c4ccc(Cl)cc4)ccc3n2C)CC1`, the concentration at half-maximal activity (AC50) under setting [2] is 15.8 µM [rising, single point] and the AC50 under setting [1] is 14.1 µM [rising, single point].

Turning to `CCOC(=O)CCc1nc2ccccc2[nH]c1=O`, the AC50 under setting [1] was 0.00708 µM [rising, full curve, poor fit].

For the compound `CCOc1ccccc1N(CC(=O)Nc1ccc(S(=O)(=O)N2CCOCC2)cc1)S(=O)(=O)c1ccc(Cl)cc1`, the AC50 under setting [2] is 2.82 µM [rising, single point].

Take `COC(=O)Nc1ccc(S(=O)(=O)Nc2ccc(O)cc2)cc1`: the AC50 under setting [1] is 28.2 µM [rising, single point].

As to `Cc1[nH]n(-c2ncc(-c3ccccc3)s2)c(=O)c1C(c1ccc(Br)cc1)C(C#N)C#N` (configuration not stated), the AC50 under setting [1] was 20 µM [rising, partial curve].

In the case of `COc1ccc(CN2CCN(c3ccccn3)CC2)cc1OCc1ccccc1`, the AC50 under setting [1] was 17.8 µM [rising, single point].

Consider `CCN1CCN(c2cc(C)c3cc(NC(=S)NCCCN4CCc5ccccc5C4)ccc3n2)CC1`, for which the concentration at half-maximal activity (AC50) under setting [1] is 17.8 µM [rising, partial curve, poor fit].

Consider `CC1CN(S(=O)(=O)c2cccc3cnccc23)CCN1` (configuration not stated), for which the AC50 under setting [2] is 3.55 µM [rising, full curve].

Turning to `Cc1c(CN2CCC(CO)(CCOc3ccccc3)CC2)[nH]c2ccc(Cl)cc12`, the AC50 by setting is: under setting [2], 11.2 µM [falling, partial curve]; under setting [1], 35.5 µM [falling, partial curve, poor fit].

Consider `O=C(NP(=O)(N1CCOCC1)N1CCOCC1)C1=C(N2CCOCC2)/C(=C\c2ccccc2)CC1`, for which the AC50 under setting [2] is 35.5 µM [falling, single point].

Take `CCC1=NN2C(=N)/C(=C/c3c(C)nn(-c4ccccc4)c3Cl)C(=O)N=C2S1`: under setting [1], the half-maximal activity concentration (AC50) is 12.6 µM [rising, single point].

For the compound `CCOc1c(O)ccc(/C=C2\SC(=S)NC2=O)c1[N+](=O)[O-]`, the half-maximal activity concentration (AC50) under setting [1] was 35.5 µM [rising, single point].

As to `O=C(CCSCc1ccc(Cl)cc1)NCc1ccc(F)cc1Cl`, under setting [1], the AC50 was 31.6 µM [rising, single point].

For `CCOC(=O)N/N=C/c1cn(CCCOc2ccc(C)cc2)c2ccccc12`, the AC50 is, setting by setting: under setting [2], 0.224 µM [rising, full curve, poor fit]; under setting [1], 28.2 µM [rising, single point].
